These are yes or no findings as the source states them, for the method shown. Binding seen in cells or lysates may run through a third protein.
Target: human CXCR4, CFP-tagged (hCXCR4-CFP) (human) (UniProt P61073)
Experiment: FRET or BRET; acceptor photobleaching FRET in HEK293T cells transiently cotransfected with a CFP fusion (donor) and a YFP fusion (acceptor); YFP bleached with 514 nm for up to 30 s; confocal microscopy; CXCL12 added to the medium in some samples

Sequences of proteins named here, by UniProt entry; tags and fusion partners are left off.
UniProt P61073: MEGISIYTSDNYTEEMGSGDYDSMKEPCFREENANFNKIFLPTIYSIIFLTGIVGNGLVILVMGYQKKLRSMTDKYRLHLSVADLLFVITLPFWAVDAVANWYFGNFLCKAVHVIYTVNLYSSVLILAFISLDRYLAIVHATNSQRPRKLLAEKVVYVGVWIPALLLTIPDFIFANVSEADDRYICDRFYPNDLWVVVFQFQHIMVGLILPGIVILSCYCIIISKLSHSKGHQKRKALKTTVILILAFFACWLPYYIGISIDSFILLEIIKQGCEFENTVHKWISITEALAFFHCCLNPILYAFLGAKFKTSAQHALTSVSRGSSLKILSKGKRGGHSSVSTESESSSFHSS
UniProt O15218: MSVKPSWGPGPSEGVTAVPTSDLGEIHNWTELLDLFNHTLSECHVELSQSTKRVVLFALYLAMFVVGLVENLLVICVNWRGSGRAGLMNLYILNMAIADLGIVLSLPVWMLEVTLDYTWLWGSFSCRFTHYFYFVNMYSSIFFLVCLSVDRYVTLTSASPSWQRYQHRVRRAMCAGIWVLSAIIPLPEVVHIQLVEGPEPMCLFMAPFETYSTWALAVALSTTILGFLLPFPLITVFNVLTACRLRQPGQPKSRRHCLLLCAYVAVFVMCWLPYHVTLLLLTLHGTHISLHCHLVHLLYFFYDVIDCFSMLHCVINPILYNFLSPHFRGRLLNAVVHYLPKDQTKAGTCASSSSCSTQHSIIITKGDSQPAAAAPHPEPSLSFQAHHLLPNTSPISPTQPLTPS

binding: no binding
Substance: human GPR182, YFP-tagged (hGPR182-YFP) (from UniProt O15218 1-404) (receptor)
